Data from ChEMBL document CHEMBL5674883, “The Heterochromatin Landscape in Migrating Cells and the Importance of H3K27me3 for Associated Transcriptome Alterations” (Cells, 2018).
Further values from the same series stand in other lists.

By UniProt entry, the sequences of proteins in these tests, tags left out.
UniProt Q61188, whole entry: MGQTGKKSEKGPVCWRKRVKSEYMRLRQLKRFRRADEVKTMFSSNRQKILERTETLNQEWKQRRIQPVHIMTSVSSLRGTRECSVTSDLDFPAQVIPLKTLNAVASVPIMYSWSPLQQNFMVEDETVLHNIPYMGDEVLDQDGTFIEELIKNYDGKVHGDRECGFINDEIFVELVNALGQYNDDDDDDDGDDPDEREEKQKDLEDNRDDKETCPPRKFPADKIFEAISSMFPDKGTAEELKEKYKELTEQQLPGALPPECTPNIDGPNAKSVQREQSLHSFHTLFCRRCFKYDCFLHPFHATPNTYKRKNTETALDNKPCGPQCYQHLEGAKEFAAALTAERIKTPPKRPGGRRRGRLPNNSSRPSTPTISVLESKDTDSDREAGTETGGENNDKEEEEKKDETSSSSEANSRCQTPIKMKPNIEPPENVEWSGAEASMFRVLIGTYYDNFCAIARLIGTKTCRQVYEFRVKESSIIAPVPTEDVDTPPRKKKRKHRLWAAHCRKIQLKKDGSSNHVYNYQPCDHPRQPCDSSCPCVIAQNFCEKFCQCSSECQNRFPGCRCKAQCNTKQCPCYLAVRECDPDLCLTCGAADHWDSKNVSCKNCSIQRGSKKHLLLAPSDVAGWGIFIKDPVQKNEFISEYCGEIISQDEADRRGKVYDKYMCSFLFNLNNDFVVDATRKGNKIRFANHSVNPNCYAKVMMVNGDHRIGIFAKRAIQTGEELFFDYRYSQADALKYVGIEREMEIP

What was measured:
Format in all cases: cell-based
[1] = molecular target: Histone-lysine N-methyltransferase EZH2 (Mus musculus) (UniProt Q61188); assay: Inhibition of EZH2 in mouse B16-F1 migrating cells assessed as fold change in H3K27me3-buffered regulated Fgfr3-mRNA expression at 3 uM measured by ChIP-seq analysis relative to control cells
[2] = molecular target: Histone-lysine N-methyltransferase EZH2 (Mus musculus) (UniProt Q61188); assay: Inhibition of EZH2 in mouse B16-F1 migrating cells assessed as fold change in H3K27me3-buffered regulated Ppfibp2-mRNA expression at 3 uM measured by ChIP-seq analysis relative to control cells
[3] = molecular target: Histone-lysine N-methyltransferase EZH2 (Mus musculus) (UniProt Q61188); assay: Inhibition of EZH2 in mouse B16-F1 migrating cells assessed as fold change in H3K27me3-independent regulated Gpi1-mRNA expression at 3 uM measured by ChIP-seq analysis relative to control cells
[4] = molecular target: Histone-lysine N-methyltransferase EZH2 (Mus musculus) (UniProt Q61188); assay: Inhibition of EZH2 in mouse B16-F1 migrating cells assessed as fold change in H3K27me3-dependent regulated Fos-mRNA expression at 3 uM measured by ChIP-seq analysis relative to control cells
[5] = molecular target: Histone-lysine N-methyltransferase EZH2 (Mus musculus) (UniProt Q61188); assay: Inhibition of EZH2 in mouse B16-F1 migrating cells assessed as fold change in H3K27me3-buffered regulated Tubgcp5-mRNA expression at 3 uM measured by ChIP-seq analysis relative to control cells
[6] = molecular target: Histone-lysine N-methyltransferase EZH2 (Mus musculus) (UniProt Q61188); assay: Inhibition of EZH2 in mouse B16-F1 migrating cells assessed as fold change in H3K27me3-buffered regulated Erbb3-mRNA expression at 3 uM measured by ChIP-seq analysis relative to control cells
[7] = molecular target: Histone-lysine N-methyltransferase EZH2 (Mus musculus) (UniProt Q61188); assay: Inhibition of EZH2 in mouse B16-F1 migrating cells assessed as fold change in H3K27me3-buffered regulated Zfp217-mRNA expression at 3 uM measured by ChIP-seq analysis relative to control cells
[8] = molecular target: Histone-lysine N-methyltransferase EZH2 (Mus musculus) (UniProt Q61188); assay: Inhibition of EZH2 in mouse B16-F1 migrating cells assessed as fold change in H3K27me3-buffered regulated Ndst3-mRNA expression at 3 uM measured by ChIP-seq analysis relative to control cells
[9] = molecular target: Histone-lysine N-methyltransferase EZH2 (Mus musculus) (UniProt Q61188); assay: Inhibition of EZH2 in mouse B16-F1 migrating cells assessed as fold change in H3K27me3-independent regulated Psrc1-mRNA expression at 3 uM measured by ChIP-seq analysis relative to control cells
[10] = molecular target: Histone-lysine N-methyltransferase EZH2 (Mus musculus) (UniProt Q61188); assay: Inhibition of EZH2 in mouse B16-F1 migrating cells assessed as fold change in H3K27me3-buffered regulated Flrt3-mRNA expression at 3 uM measured by ChIP-seq analysis relative to control cells
[11] = molecular target: Histone-lysine N-methyltransferase EZH2 (Mus musculus) (UniProt Q61188); assay: Inhibition of EZH2 in mouse B16-F1 migrating cells assessed as fold change in H3K27me3-dependent regulated Pim1-mRNA expression at 3 uM measured by ChIP-seq analysis relative to control cells
[12] = molecular target: Histone-lysine N-methyltransferase EZH2 (Mus musculus) (UniProt Q61188); assay: Inhibition of EZH2 in mouse B16-F1 migrating cells assessed as fold change in H3K27me3-buffered regulated Pkhd1-mRNA expression at 3 uM measured by ChIP-seq analysis relative to control cells
[13] = molecular target: Histone-lysine N-methyltransferase EZH2 (Mus musculus) (UniProt Q61188); assay: Inhibition of EZH2 in mouse B16-F1 migrating cells assessed as fold change in H3K27me3-buffered regulated Slc7a11-mRNA expression at 3 uM measured by ChIP-seq analysis relative to control cells
[14] = molecular target: Histone-lysine N-methyltransferase EZH2 (Mus musculus) (UniProt Q61188); assay: Inhibition of EZH2 in mouse B16-F1 migrating cells assessed as fold change in H3K27me3-buffered regulated Dusp1-mRNA expression at 3 uM measured by ChIP-seq analysis relative to control cells
[15] = molecular target: Histone-lysine N-methyltransferase EZH2 (Mus musculus) (UniProt Q61188); assay: Inhibition of EZH2 in mouse B16-F1 migrating cells assessed as fold change in H3K27me3-buffered regulated Epha7-mRNA expression at 3 uM measured by ChIP-seq analysis relative to control cells
[16] = molecular target: T1, RNA polymerase II (Mus musculus) (UniProt P08775+Q8CFI7+P97760+A0A3Q4L2S8+Q80UW8+P61219+P62488+Q923G2+P60898+O08740+Q63871+P62876); assay: Inhibition of RNA polymerase II in mouse B16-F1 migrating cells assessed as fold change in Snx13-RNA stability at 0.1 mM measured by ChIP-seq analysis relative to control cells
[17] = molecular target: T1, RNA polymerase II (Mus musculus); assay: Inhibition of RNA polymerase II in mouse B16-F1 migrating cells assessed as fold change in Clasp2-RNA stability at 0.1 mM measured by ChIP-seq analysis relative to control cells
[18] = molecular target: T1, RNA polymerase II (Mus musculus); assay: Inhibition of RNA polymerase II in mouse B16-F1 migrating cells assessed as fold change in Dapk3-RNA stability at 0.1 mM measured by ChIP-seq analysis relative to control cells
[19] = molecular target: T1, RNA polymerase II (Mus musculus); assay: Inhibition of RNA polymerase II in mouse B16-F1 migrating cells assessed as fold change in Sema3f-RNA stability at 0.1 mM measured by ChIP-seq analysis relative to control cells
[20] = molecular target: T1, RNA polymerase II (Mus musculus); assay: Inhibition of RNA polymerase II in mouse B16-F1 migrating cells assessed as fold change in Metap2-RNA stability at 0.1 mM measured by ChIP-seq analysis relative to control cells
[21] = molecular target: T1, RNA polymerase II (Mus musculus); assay: Inhibition of RNA polymerase II in mouse B16-F1 migrating cells assessed as fold change in Fem1b-RNA stability at 0.1 mM measured by ChIP-seq analysis relative to control cells
[22] = molecular target: T1, RNA polymerase II (Mus musculus); assay: Inhibition of RNA polymerase II in mouse B16-F1 migrating cells assessed as fold change in Hmgb2-RNA stability at 0.1 mM measured by ChIP-seq analysis relative to control cells
[23] = molecular target: T1, RNA polymerase II (Mus musculus); assay: Inhibition of RNA polymerase II in mouse B16-F1 migrating cells assessed as fold change in Amz2-RNA stability at 0.1 mM measured by ChIP-seq analysis relative to control cells
[24] = molecular target: T1, RNA polymerase II (Mus musculus); assay: Inhibition of RNA polymerase II in mouse B16-F1 migrating cells assessed as fold change in Dbf4-RNA stability at 0.1 mM measured by ChIP-seq analysis relative to control cells
[25] = molecular target: T1, RNA polymerase II (Mus musculus); assay: Inhibition of RNA polymerase II in mouse B16-F1 migrating cells assessed as fold change in Zbtb1-RNA stability at 0.1 mM measured by ChIP-seq analysis relative to control cells
[26] = molecular target: T1, RNA polymerase II (Mus musculus); assay: Inhibition of RNA polymerase II in mouse B16-F1 migrating cells assessed as fold change in Canx-RNA stability at 0.1 mM measured by ChIP-seq analysis relative to control cells
[27] = molecular target: T1, RNA polymerase II (Mus musculus); assay: Inhibition of RNA polymerase II in mouse B16-F1 migrating cells assessed as fold change in Smc4-RNA stability at 0.1 mM measured by ChIP-seq analysis relative to control cells
[28] = molecular target: T1, RNA polymerase II (Mus musculus); assay: Inhibition of RNA polymerase II in mouse B16-F1 migrating cells assessed as fold change in Mea1-RNA stability at 0.1 mM measured by ChIP-seq analysis relative to control cells
[29] = molecular target: T1, RNA polymerase II (Mus musculus); assay: Inhibition of RNA polymerase II in mouse B16-F1 migrating cells assessed as fold change in Fanca-RNA stability at 0.1 mM measured by ChIP-seq analysis relative to control cells
[30] = molecular target: T1, RNA polymerase II (Mus musculus); assay: Inhibition of RNA polymerase II in mouse B16-F1 migrating cells assessed as fold change in Slc25a39-RNA stability at 0.1 mM measured by ChIP-seq analysis relative to control cells

CCCc1cc(C)[nH]c(=O)c1CNC(=O)c1cc(-c2ccnc(N3CCN(C)CC3)c2)cc2c1cnn2C(C)C
log2FC [1]: -0.5
log2FC [2]: 0.41
log2FC [3]: 0.55
log2FC [4]: 0.19
log2FC [5]: -0.41
log2FC [6]: -0.44
log2FC [7]: -0.43
log2FC [8]: -0.57
log2FC [9]: -0.56
log2FC [10]: -0.46
log2FC [11]: -0.39
log2FC [12]: -1.27
log2FC [13]: 0.44
log2FC [14]: 0.72
log2FC [15]: -0.49

OC[C@H]1O[C@@H](n2cnc3cc(Cl)c(Cl)cc32)[C@H](O)[C@@H]1O
log2FC [16]: -0.61
log2FC [17]: -0.42
log2FC [18]: 0.47
log2FC [19]: 0.98
log2FC [20]: -0.39
log2FC [21]: -0.5
log2FC [22]: -0.85
log2FC [23]: 0.4
log2FC [24]: -0.46
log2FC [25]: -0.67
log2FC [26]: -0.71
log2FC [27]: -0.84
log2FC [28]: 0.49
log2FC [29]: -0.48
log2FC [30]: 0.44
